Experimental data published in the supplement of paper PMC6411743.
± gives the standard deviation of the averaged measurements. The list shows a part of the results, in another mix than the full data.

Experiments:
Test in all cases: NP40-soluble protein abundance relative to vehicle (solubility fold change) (ratio); higher = more soluble protein in presence of ATP
[1] = molecular target: T1, A0A0A0MSG2|J3KNW4 and related entries (UniProt Q14192)
T1 sequence (whole entry): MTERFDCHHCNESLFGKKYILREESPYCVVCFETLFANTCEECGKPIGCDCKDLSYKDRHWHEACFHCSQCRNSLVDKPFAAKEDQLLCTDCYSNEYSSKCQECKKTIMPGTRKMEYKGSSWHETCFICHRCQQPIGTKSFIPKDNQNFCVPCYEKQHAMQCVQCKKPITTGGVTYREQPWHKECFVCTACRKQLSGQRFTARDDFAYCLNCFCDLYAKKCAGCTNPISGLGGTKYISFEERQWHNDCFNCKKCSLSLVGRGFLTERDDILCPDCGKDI
Summary of the method: (§1)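 In three independent experiments, Jurkat crude lysate made by Dounce homogenisation was treated for 10 min at room temperature and then 3 min at 37 °C with eight concentrations ranging from 0.1 to 10 mM. It was then solubilised with 0.8% NP40 plus benzonase for 60 min at 4 °C and ultracentrifuged. The supernatant was TMT-labelled for LC-MS/MS, and each value is the fold change against the detergent-processed vehicle for the same replicate, using vsn-normalised intensities.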

[2] = molecular target: T2, A0A0A0MT33|Q9UPN6 (UniProt Q9UPN6)
T2 sequence (whole entry): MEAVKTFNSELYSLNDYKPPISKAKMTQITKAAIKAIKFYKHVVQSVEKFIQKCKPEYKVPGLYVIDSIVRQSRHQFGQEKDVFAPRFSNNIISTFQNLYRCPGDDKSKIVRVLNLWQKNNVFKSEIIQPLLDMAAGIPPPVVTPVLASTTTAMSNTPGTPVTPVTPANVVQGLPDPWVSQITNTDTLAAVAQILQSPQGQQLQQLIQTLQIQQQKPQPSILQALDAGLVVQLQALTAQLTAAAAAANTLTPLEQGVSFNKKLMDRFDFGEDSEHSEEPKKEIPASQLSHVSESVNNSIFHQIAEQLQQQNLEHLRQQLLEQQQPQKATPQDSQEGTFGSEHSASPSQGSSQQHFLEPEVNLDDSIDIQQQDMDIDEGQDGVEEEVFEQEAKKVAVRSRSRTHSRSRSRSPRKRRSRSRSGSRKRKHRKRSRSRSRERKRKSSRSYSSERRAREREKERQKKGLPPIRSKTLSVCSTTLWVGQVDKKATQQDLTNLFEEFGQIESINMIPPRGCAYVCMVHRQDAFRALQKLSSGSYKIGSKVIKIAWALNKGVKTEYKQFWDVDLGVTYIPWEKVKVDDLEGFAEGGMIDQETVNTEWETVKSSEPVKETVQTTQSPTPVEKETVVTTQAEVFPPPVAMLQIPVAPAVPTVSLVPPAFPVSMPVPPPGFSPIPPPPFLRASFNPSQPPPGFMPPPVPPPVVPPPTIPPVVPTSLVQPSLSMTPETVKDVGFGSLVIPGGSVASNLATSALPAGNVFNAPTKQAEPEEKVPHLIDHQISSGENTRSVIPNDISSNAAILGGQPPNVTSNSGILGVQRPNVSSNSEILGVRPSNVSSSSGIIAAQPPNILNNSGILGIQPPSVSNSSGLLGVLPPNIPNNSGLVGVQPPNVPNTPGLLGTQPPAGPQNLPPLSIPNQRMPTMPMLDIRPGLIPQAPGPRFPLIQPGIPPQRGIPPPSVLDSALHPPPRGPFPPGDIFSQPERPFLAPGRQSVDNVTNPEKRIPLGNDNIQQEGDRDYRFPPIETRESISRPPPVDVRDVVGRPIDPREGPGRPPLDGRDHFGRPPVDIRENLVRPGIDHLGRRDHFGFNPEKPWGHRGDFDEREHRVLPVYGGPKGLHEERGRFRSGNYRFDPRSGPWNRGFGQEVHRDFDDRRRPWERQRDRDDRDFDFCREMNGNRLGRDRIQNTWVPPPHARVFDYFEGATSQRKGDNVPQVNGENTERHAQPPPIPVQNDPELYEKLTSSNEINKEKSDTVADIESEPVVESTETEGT
Summary of the method: as §1

[3] = molecular target: T3, A0A0A0MTG4|P82094 (UniProt P82094)
T3 sequence (whole entry): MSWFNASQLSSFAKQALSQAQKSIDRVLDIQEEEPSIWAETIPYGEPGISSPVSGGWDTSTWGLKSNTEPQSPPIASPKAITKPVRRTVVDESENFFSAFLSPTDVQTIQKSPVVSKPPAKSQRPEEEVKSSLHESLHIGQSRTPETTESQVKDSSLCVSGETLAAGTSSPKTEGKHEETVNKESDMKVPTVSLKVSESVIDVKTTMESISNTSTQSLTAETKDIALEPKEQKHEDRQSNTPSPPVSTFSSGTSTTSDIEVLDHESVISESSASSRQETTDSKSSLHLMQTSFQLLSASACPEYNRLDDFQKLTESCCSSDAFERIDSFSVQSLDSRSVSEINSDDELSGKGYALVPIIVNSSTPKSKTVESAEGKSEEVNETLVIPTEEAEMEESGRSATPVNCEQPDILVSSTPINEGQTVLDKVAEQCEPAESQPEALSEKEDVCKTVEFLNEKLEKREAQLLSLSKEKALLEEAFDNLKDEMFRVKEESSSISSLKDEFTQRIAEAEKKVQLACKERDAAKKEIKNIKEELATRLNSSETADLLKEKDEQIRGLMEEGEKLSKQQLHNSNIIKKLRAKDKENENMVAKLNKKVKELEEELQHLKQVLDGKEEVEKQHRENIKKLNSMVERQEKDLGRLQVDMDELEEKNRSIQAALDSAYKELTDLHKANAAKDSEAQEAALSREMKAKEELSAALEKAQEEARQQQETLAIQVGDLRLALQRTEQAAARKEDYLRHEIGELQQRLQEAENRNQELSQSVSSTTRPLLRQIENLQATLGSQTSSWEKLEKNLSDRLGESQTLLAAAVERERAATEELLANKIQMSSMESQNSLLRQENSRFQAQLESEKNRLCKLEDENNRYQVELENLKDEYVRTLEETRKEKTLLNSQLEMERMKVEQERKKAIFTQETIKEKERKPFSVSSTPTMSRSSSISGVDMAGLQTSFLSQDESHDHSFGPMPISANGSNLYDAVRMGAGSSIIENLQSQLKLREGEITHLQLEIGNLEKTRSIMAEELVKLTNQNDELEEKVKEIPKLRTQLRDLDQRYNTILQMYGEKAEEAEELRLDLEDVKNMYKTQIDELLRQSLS
Summary of the method: as §1

[4] = molecular target: T4, A0A0A6YY96|P48200 (UniProt P48200)
T4 sequence (whole entry): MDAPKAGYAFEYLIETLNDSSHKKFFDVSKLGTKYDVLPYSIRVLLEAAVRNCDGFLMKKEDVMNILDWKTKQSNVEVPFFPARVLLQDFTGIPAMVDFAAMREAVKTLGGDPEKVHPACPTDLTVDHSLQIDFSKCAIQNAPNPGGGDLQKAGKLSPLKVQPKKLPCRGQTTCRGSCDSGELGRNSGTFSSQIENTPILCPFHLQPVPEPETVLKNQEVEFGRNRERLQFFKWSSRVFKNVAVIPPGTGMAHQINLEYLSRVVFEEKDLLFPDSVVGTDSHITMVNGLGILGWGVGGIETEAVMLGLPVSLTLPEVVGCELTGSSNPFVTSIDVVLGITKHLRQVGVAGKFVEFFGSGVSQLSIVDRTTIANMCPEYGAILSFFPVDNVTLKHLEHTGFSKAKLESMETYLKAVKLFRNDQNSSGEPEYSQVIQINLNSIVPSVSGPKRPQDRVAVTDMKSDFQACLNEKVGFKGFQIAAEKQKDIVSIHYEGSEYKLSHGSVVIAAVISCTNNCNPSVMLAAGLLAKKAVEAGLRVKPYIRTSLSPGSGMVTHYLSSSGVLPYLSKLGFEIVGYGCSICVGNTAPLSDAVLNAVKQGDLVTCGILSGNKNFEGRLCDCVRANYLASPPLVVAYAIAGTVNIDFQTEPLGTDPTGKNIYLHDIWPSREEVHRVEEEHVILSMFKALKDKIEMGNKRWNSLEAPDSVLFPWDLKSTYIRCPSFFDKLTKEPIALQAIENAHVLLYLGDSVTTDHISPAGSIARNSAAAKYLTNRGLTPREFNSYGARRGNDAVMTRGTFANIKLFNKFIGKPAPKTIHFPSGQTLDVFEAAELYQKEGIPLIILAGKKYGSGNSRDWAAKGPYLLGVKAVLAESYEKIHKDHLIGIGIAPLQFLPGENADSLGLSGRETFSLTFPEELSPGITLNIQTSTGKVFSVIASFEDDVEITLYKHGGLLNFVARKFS
Summary of the method: as §1

[5] = molecular target: T5, A0A0A6YYL4|P57737-3|P57737-4 (UniProt P57737)
T5 sequence (whole entry): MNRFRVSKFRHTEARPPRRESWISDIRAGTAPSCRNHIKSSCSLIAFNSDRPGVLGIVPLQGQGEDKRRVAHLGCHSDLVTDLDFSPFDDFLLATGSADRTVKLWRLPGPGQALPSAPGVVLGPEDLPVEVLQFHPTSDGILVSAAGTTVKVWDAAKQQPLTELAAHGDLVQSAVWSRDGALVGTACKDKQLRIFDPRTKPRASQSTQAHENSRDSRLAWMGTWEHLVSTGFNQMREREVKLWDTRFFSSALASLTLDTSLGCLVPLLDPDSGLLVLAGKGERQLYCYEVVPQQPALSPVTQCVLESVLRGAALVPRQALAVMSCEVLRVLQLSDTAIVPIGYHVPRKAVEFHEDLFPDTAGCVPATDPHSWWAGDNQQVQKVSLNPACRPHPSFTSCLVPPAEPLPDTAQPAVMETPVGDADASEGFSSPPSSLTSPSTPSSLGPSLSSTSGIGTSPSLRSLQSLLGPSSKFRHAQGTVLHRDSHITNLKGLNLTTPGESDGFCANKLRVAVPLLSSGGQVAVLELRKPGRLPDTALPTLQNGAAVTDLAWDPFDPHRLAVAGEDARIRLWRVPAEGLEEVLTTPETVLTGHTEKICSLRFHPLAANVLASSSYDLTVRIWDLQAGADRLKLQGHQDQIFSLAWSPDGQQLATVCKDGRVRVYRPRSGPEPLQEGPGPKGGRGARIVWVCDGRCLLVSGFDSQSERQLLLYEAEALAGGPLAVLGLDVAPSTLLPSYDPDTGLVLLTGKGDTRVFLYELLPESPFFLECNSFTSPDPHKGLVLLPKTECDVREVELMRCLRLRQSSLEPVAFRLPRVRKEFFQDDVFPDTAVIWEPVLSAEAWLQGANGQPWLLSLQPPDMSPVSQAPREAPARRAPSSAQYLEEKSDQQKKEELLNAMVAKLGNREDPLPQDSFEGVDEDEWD
Summary of the method: as §1

Q: How did the NP40-soluble protein abundance ([1]; concentration: 1mM) turn out when Nc1ncnc2c1ncn2[C@@H]1O[C@H](COP(=O)(O)OP(=O)(O)OP(=O)(O)O)[C@@H](O)[C@H]1O [adenosine triphosphate] was run?
A: 1.05 ± 0.0076

Q: What about the NP40-soluble protein abundance ([1]; concentration: 2mM) of the same molecule?
A: 1.1 ± 0.1

Q: And the NP40-soluble protein abundance ([1]; concentration: 4mM)?
A: 1.07 ± 0.087

Q: What about the NP40-soluble protein abundance ([1]; concentration: 6mM) of the same molecule?
A: 1.07 ± 0.019

Q: What about the NP40-soluble protein abundance ([1]; concentration: 8mM) of the same molecule?
A: 1.14 ± 0.029

Q: What about the NP40-soluble protein abundance ([1]; concentration: 10mM) of the same molecule?
A: 1.08 ± 0.037

Q: What about the NP40-soluble protein abundance ([2]; concentration: 1mM) of the same molecule?
A: 1.03 ± 0.063

Q: What about the NP40-soluble protein abundance ([2]; concentration: 2mM) of the same molecule?
A: 1.07 ± 0.022

Q: What about the NP40-soluble protein abundance ([2]; concentration: 4mM) of the same molecule?
A: 1.03 ± 0.031

Q: And the NP40-soluble protein abundance ([2]; concentration: 6mM)?
A: 1.1 ± 0.086

Q: And the NP40-soluble protein abundance ([2]; concentration: 8mM)?
A: 1.06 ± 0.031

Q: What about the NP40-soluble protein abundance ([2]; concentration: 10mM) of the same molecule?
A: 1.05 ± 0.023

Q: And the NP40-soluble protein abundance ([3]; concentration: 1mM)?
A: 0.944 ± 0.042

Q: What about the NP40-soluble protein abundance ([3]; concentration: 2mM) of the same molecule?
A: 0.944 ± 0.027

Q: And the NP40-soluble protein abundance ([3]; concentration: 4mM)?
A: 0.959 ± 0.017

Q: What about the NP40-soluble protein abundance ([3]; concentration: 6mM) of the same molecule?
A: 0.99 ± 0.029

Q: And the NP40-soluble protein abundance ([3]; concentration: 8mM)?
A: 0.933 ± 0.014

Q: And the NP40-soluble protein abundance ([3]; concentration: 10mM)?
A: 0.9393 ± 0.0069

Q: What about the NP40-soluble protein abundance ([4]; concentration: 1mM) of the same molecule?
A: 1.06 ± 0.092

Q: And the NP40-soluble protein abundance ([4]; concentration: 2mM)?
A: 1.04 ± 0.047

Q: And the NP40-soluble protein abundance ([4]; concentration: 4mM)?
A: 1.04 ± 0.081

Q: And the NP40-soluble protein abundance ([4]; concentration: 6mM)?
A: 1.07 ± 0.034

Q: What about the NP40-soluble protein abundance ([4]; concentration: 8mM) of the same molecule?
A: 1.03 ± 0.065

Q: What about the NP40-soluble protein abundance ([4]; concentration: 10mM) of the same molecule?
A: 1.05 ± 0.14

Q: And the NP40-soluble protein abundance ([5]; concentration: 1mM)?
A: 0.999 ± 0.014

Q: What about the NP40-soluble protein abundance ([5]; concentration: 2mM) of the same molecule?
A: 0.981 ± 0.017

Q: What about the NP40-soluble protein abundance ([5]; concentration: 4mM) of the same molecule?
A: 0.969 ± 0.011
